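Luminescence from an EWS-FLI1 target-promoter (NR0B1) reporter, set against a CMV-promoter reporter, two days after silencing single genes in TC32 Ewing sarcoma cells.
Each siRNA was applied at 20 nM.
A z-score of the log NR0B1-over-CMV signal, less the median of siRNAs with the same seed; more negative means a stronger specific loss of the NR0B1 reporter.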

The strongest results of the screen are mostly left out here.
Sequences are the guide (antisense) strand, without overhang.

| # | Sequence | gene | seed-corrected z-score |
|---|---|---|---|
| 1 | `UACUUCGCAAAAGUGUCUC` | UBE3C | 0.1891 |
| 2 | `UUGUUUCCCGUUGAAUUUG` | CEP19 | -0.5535 |
| 3 | `AUCGUCAUAACACUCAUGG` | BFSP1 | 0.1353 |
| 4 | `UAUCUGGAUGUGGUCGUUG` | CT47B1 | 0.1261 |
| 5 | `UACCAUAUCGAAGAACGCG` | PCDHGB6 | 0.349 |
| 6 | `UUAGGGUUAUGGGUUAGUG` | SPRNP1 | -0.8303 |
| 7 | `UUUACUGUCCAAGACUUGC` | BTF3L4P2 | 0.8531 |
| 8 | `UAGUGGAAGAUAUCACUCC` | SLC25A14 | 0.5338 |
| 9 | `AUAGUUCCACGUCUAAUGC` | SSR2 | 0.06846 |
| 10 | `UAUUUCAUAUCUUUCUCCU` | DEFB128 | 0.1691 |
| 11 | `UAUGUGCAUGAAGUAAUCC` | FENDRR | -0.04457 |
| 12 | `UUCGAGUUCAUUCUCAUCC` | C12orf65 | 0.7551 |
| 13 | `UCGCUUUUUCCGGUAAUGC` | MPZL2 | 0.5801 |
| 14 | `AAAAUAAUAACUACAAUGC` | OLIG2 | 0.5455 |
| 15 | `UUCAGUGUAAGACAAUGUG` | SMAD6 | 0.2007 |
| 16 | `UGACUUAAGAUGGUGCUGU` | LOC647145 | -0.2787 |
| 17 | `AAAAGAGAUAGGGCUCUUC` | TMPPE | -0.9871 |
| 18 | `UCAUUGACCAGUUCAGGAC` | ZC3H15 | 0.2128 |
| 19 | `AAUUAUUCCGAAAACGAUC` | SAMSN1 | -0.07915 |
| 20 | `UCUACGAAUAGAAUGUUCC` | RSBN1 | -0.01639 |
| 21 | `UCUUUGACUUGACGAAAGC` | TIRAP | -0.1267 |
| 22 | `UGGGCACUAAGCAAAGACU` | C1QTNF5 | 0.08332 |
| 23 | `UUUCGUCCUGGUAUAUUCG` | SATB1 | -0.00875 |
| 24 | `UACGUGGUAAUUCAAAUGG` | GRIA3 | -0.7735 |
| 25 | `AACGGAUUGGUAAAAUUCC` | PCDHA13 | -0.662 |
| 26 | `AGUUGUCCCAUUGUACUCG` | CHRDL1 | -0.1062 |
| 27 | `UUAGGAUUAGGUGGAGUCU` | PAGE4 | 1.535 |
| 28 | `AAUUGUUCCACUCUGGUCU` | PITPNC1 | 0.5165 |
| 29 | `UCUGUAGUAGUUCUUACAC` | HPR | 0.2581 |
| 30 | `UAAGUGGAUCGACUGAAGG` | ZNF627 | 0.6396 |
| 31 | `UGCUUGUAUAUUGACUAUG` | MAP10 | -0.1076 |
| 32 | `UGAAGUGAGAGAUACAGCC` | EGFLAM | 0.6487 |
| 33 | `AUAGUAGUAAUGUCCCUUC` | TDRKH | -0.4951 |
| 34 | `AUAGCGAGCAUAAGAAUCC` | RGS9 | -0.7061 |
| 35 | `AAUGGUUUGCAAAUCAUCU` | UBXN10 | 0.1188 |
| 36 | `UCUGUUUCACCAGUCGUAG` | LRP11 | -0.7566 |
| 37 | `UUAUUGUCAUUCCUCCAAG` | MT3 | 0.1236 |
| 38 | `UGUGAAUCCACGACCAUUC` | MAPKAPK5 | -0.2547 |
| 39 | `UUGGUGUUGAGGUCUGCCC` | TEAD4 | -0.2 |
| 40 | `UUUCUGUUCAACUAGUGCC` | NBPF7 | -1.445 |
| 41 | `UUCCUUAUCAAACACGGUG` | C5orf22 | 0.1563 |
| 42 | `UUCCUGUUGACCAUAUUGG` | SKP1P2 | 0.08648 |
| 43 | `UAUUGUAGUGACCCAGACC` | WBSCR16 | 0.9126 |
| 44 | `UACUUGUCCACAGGUCCCA` | SIX6 | -0.3457 |
| 45 | `UUACUGAUGCAGUAAGUCC` | KLHDC2 | 0.5377 |
| 46 | `AAUCUUUCGAUUGAUCCUG` | IRAK2 | -0.7156 |
| 47 | `UUUUCGGAAAUUUUGUCCC` | TSHZ2 | -0.07246 |
| 48 | `UCCGUAUCUACUGUGAUGU` | XYLT2 | -0.2062 |
| 49 | `UCUGAUUAAAGCUCUUACC` | ZNF235 | -0.2082 |
| 50 | `UUAUCAACAAAAACUCCGG` | ZEB2 | -1.354 |
| 51 | `UGGGUAGUAACGGUUCAGC` | CARD19 | -0.02203 |
| 52 | `UACUGAUGCGGACCAGUGC` | TRIM46 | -0.6022 |
| 53 | `UUCCUUACCGGUGCUCUUG` | HSPA2 | -0.03013 |
| 54 | `UCACGCAUCACCGAGGACU` | LMNB2 | -0.3058 |
| 55 | `UAUCCUUCUGGUGCCGCUC` | CCDC69 | 0.3697 |
| 56 | `UUGUUUAAAAGUUCGGCAG` | MCHR2 | -0.6261 |
| 57 | `UUCAUUCUAAGAUCUCCUU` | LINC01137 | 0.4572 |
| 58 | `UCGGUGACAGCACUCCUAC` | CPEB2-AS1 | -0.1608 |
| 59 | `UUAGUCUUGACCGUUUGUC` | ZNF862 | -0.3228 |
| 60 | `UCCUUGACUCGCUUAAUGC` | TAF5L | -0.03632 |

Once more, the final 4:

UUCAUUCUAAGAUCUCCUU against LINC01137 gave seed-corrected z-score 0.4572.
UCGGUGACAGCACUCCUAC against CPEB2-AS1 gave seed-corrected z-score -0.1608.
UUAGUCUUGACCGUUUGUC against ZNF862 gave seed-corrected z-score -0.3228.
UCCUUGACUCGCUUAAUGC against TAF5L gave seed-corrected z-score -0.03632.

Data taken from PubChem BioAssay AID1159506, deposited by NCATS (2015).